± gives the expanded uncertainty stated by the source.
Settings: 273.15 K; 101.3 kPa; Liquid; Pycnometric method

Molecule `O` [water] has a mass density of 999 ± 2 kg/m3.
